Counter-ions that a name gives are not always drawn. This is one part of the list. Single values are uncertain, as repeats are few or missing.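 Labelled rat cortical synaptosomes were engulfed by primary human fetal astrocytes. Engulfment equaled a red/green ratio, corrected for calcein live-cell signal and normalized to the plate median. Compounds were toxic when calcein dropped over 30%, and reduced phagocytosis when below 70% of the median above 5 µM.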
Tests used:
Details in all cases: 24 h
Human fetal astrocytes [1] = test: loss of total cells relative to no-compound high-control median (toxicity); higher = more toxic (fewer cells)
Human fetal astrocytes [2] = test: synaptosome phagocytosis (pHrodo/calcein intensity ratio) relative to plate median of data wells; higher = more phagocytosis
Human fetal astrocytes [3] = test: loss of total cells relative to no-compound high-control median (toxicity); higher = more toxic (fewer cells); remark: listed apart in the source

Row | SMILES | loss of total cells (Human fetal astrocytes [1]; 1.39 µM) [%] | loss of total cells (Human fetal astrocytes [1]; 2.78 µM) [%] | loss of total cells (Human fetal astrocytes [1]; 5.56 µM) [%] | loss of total cells (Human fetal astrocytes [1]; 11.11 µM) [%] | loss of total cells (Human fetal astrocytes [1]; 22.22 µM) [%] | synaptosome phagocytosis (Human fetal astrocytes [2]; 1.39 µM) [%] | synaptosome phagocytosis (Human fetal astrocytes [2]; 2.78 µM) [%] | synaptosome phagocytosis (Human fetal astrocytes [2]; 5.56 µM) [%] | synaptosome phagocytosis (Human fetal astrocytes [2]; 11.11 µM) [%] | synaptosome phagocytosis (Human fetal astrocytes [2]; 22.22 µM) [%] | loss of total cells (Human fetal astrocytes [3]; 1.39 µM) [%] | loss of total cells (Human fetal astrocytes [3]; 2.78 µM) [%] | loss of total cells (Human fetal astrocytes [3]; 5.56 µM) [%] | loss of total cells (Human fetal astrocytes [3]; 11.11 µM) [%] | loss of total cells (Human fetal astrocytes [3]; 22.22 µM) [%]
1 | Nc1ncnc2c1c(-c1ccc(Oc3ccccc3)cc1)cn2C1CCCC1 | 4.6 | 1.7 | 17.3 | 19.3 | 70.4 | 126 | 100 | 128 | 103 | 86 | – | – | – | – | –
2 | NC[C@@H]1O[C@H](O[C@H]2[C@@H](O)[C@H](O[C@@H]3[C@@H](O)[C@H](N)C[C@H](N)[C@H]3O[C@H]3O[C@H](CO)[C@@H](O)[C@H](O)[C@H]3N)O[C@@H]2CO)[C@H](N)[C@@H](O)[C@@H]1O [Paromomycin sulfate] | 2.2 | -25.4 | -2.2 | 1.9 | -1.6 | 72.2 | 120 | 99.6 | 83.8 | 106 | – | – | – | – | –
3 | COc1cc(CNC(=O)CCCCCCC(C)C)ccc1O [Dihydrocapsaicin] | -5.2 | 28.5 | 14.6 | 10.5 | 11.2 | 115 | 104 | 105 | 92.2 | 120 | – | – | – | – | –
4 | Cc1cn(C2C=CC(CO)O2)c(=O)[nH]c1=O (stereo not drawn) [2',3'-didehydro-3'-deoxythymidine] | 2.9 | 0 | -8.2 | -1.3 | 3.2 | 112 | 80.5 | 89.7 | 97.1 | 126 | – | – | – | – | –
5 | C[C@H]1C[C@H]2[C@@H]3CCC4=CC(=O)C=C[C@]4(C)[C@@]3(Cl)[C@@H](O)C[C@]2(C)[C@@]1(O)C(=O)CO [Beclomethasone] | -14.3 | -12.9 | -5.1 | -4 | 10.2 | 103 | 76.3 | 76.2 | 113 | 77.8 | – | – | – | – | –
6 | COc1ccccc1N1CCN(CCCCNC(=O)c2ccc3ccccc3c2)CC1 | -6.6 | -16.5 | -28.1 | -10.3 | 2.6 | 125 | 116 | 77.1 | 108 | 112 | – | – | – | – | –
7 | O=C(OCCN1CCOCC1)C1(c2ccccc2)CCCCC1 | -12.8 | -10.4 | 10.8 | 19 | 12.1 | 103 | 118 | 92 | 126 | 80.2 | – | – | – | – | –
8 | Cc1nc2c(OCc3ccccc3)cccn2c1CC#N | -16.3 | -1.7 | -4.1 | -16.6 | 5.6 | 87.6 | 108 | 108 | 75 | 80.3 | – | – | – | – | –
9 | N[C@@H](Cc1ccc(F)cc1)C(=O)O [p-Fluoro-L-phenylalanine] | -1.3 | 0 | -16.5 | -8.5 | 6.4 | 118 | 126 | 102 | 114 | 96.5 | – | – | – | – | –
10 | Cn1cnc2c(NCc3ccccc3)nc(NCCO)nc21 [Olomoucine] | -28 | 2.3 | -1.4 | -7.6 | 6.5 | 87 | 139 | 122 | 100 | 136 | – | – | – | – | –
11 | N=C(N)c1ccc(OCCCCCOc2ccc(C(=N)N)cc2)cc1 [Pentamidine isethionate] | -11.8 | 7.7 | 9.9 | 10.5 | 19.6 | 107 | 128 | 89.2 | 111 | 96.5 | – | – | – | – | –
12 | CNC(=O)[C@H]1O[C@@H](n2cnc3c(NCc4cccc(I)c4)nc(Cl)nc32)[C@H](O)[C@@H]1O [Chloro-IB-MECA] | -8.8 | -0.9 | 1.6 | 1.3 | – | 77.2 | 74.3 | 105 | 71.4 | – | – | – | – | – | –
13 | C=CCN1CCc2c(cc(O)c(O)c2Cl)C(c2ccccc2)C1 (racemic) [(±)-Chloro-APB hydrobromide] | – | – | – | – | 15.2 | – | – | – | – | 67.8 | – | – | – | – | –
14 | COc1cccc2c1C(=O)c1c(O)c3c(c(O)c1C2=O)C[C@@](O)(C(=O)CO)C[C@@H]3O[C@H]1C[C@H](N)[C@H](O)[C@H](C)O1 | – | – | – | – | – | – | – | – | – | – | -51.6 | -22.2 | 4.3 | 38.4 | 7.8
15 | CC[n+]1c(-c2ccccc2)c2cc(N)ccc2c2ccc(N)cc21 | – | – | – | – | – | – | – | – | – | – | 28.5 | 22 | 34.1 | 33.9 | 19.7
16 | COc1cccc2c1C(=O)c1c(O)c3c(c(O)c1C2=O)C[C@@](O)(C(C)=O)C[C@@H]3O[C@H]1C[C@H](N)[C@H](O)[C@H](C)O1 | – | – | – | – | – | – | – | – | – | – | 11.6 | 15.3 | 18.8 | 28.5 | 33.7
17 | N[C@@H]1CONC1=O [D-Cycloserine] | 5.9 | -9.9 | 4.1 | -6.7 | 13.2 | 137 | 89.1 | 112 | 97.3 | 102 | – | – | – | – | –
18 | Oc1ccc(/C=C/c2cc(O)cc(O)c2)cc1 [Resveratrol] | -22 | 4.5 | -6.7 | -7.3 | 23.9 | 105 | 119 | 120 | 114 | 94 | – | – | – | – | –
19 | O=C(c1ccc2c(c1)OCCO2)N1CCCCC1 | – | – | – | – | -18.4 | – | – | – | – | 104 | – | – | – | – | –
20 | O=C(O)CN(CC(=O)O)Cc1cc2c(cc1O)Oc1cc(O)c(CN(CC(=O)O)CC(=O)O)cc1C21OC(=O)c2ccccc21 | – | – | – | – | – | – | – | – | – | – | 17 | 5.4 | 25.4 | -69 | 33.3

Full records from above. Values in the order: loss of total cells (Human fetal astrocytes [1]; 1.39 µM) [%]	loss of total cells (Human fetal astrocytes [1]; 2.78 µM) [%]	loss of total cells (Human fetal astrocytes [1]; 5.56 µM) [%]	loss of total cells (Human fetal astrocytes [1]; 11.11 µM) [%]	loss of total cells (Human fetal astrocytes [1]; 22.22 µM) [%]	synaptosome phagocytosis (Human fetal astrocytes [2]; 1.39 µM) [%]	synaptosome phagocytosis (Human fetal astrocytes [2]; 2.78 µM) [%]	synaptosome phagocytosis (Human fetal astrocytes [2]; 5.56 µM) [%]	synaptosome phagocytosis (Human fetal astrocytes [2]; 11.11 µM) [%]	synaptosome phagocytosis (Human fetal astrocytes [2]; 22.22 µM) [%]	loss of total cells (Human fetal astrocytes [3]; 1.39 µM) [%]	loss of total cells (Human fetal astrocytes [3]; 2.78 µM) [%]	loss of total cells (Human fetal astrocytes [3]; 5.56 µM) [%]	loss of total cells (Human fetal astrocytes [3]; 11.11 µM) [%]	loss of total cells (Human fetal astrocytes [3]; 22.22 µM) [%]
`NC[C@@H]1O[C@H](O[C@H]2[C@@H](O)[C@H](O[C@@H]3[C@@H](O)[C@H](N)C[C@H](N)[C@H]3O[C@H]3O[C@H](CO)[C@@H](O)[C@H](O)[C@H]3N)O[C@@H]2CO)[C@H](N)[C@@H](O)[C@@H]1O` [Paromomycin sulfate] in the list: 2.2	-25.4	-2.2	1.9	-1.6	72.2	120	99.6	83.8	106	–	–	–	–	–
`N[C@@H]1CONC1=O` [D-Cycloserine] in the list: 5.9	-9.9	4.1	-6.7	13.2	137	89.1	112	97.3	102	–	–	–	–	–

Additional structures follow.

Row | SMILES | loss of total cells (Human fetal astrocytes [1]; 1.39 µM) [%] | loss of total cells (Human fetal astrocytes [1]; 2.78 µM) [%] | loss of total cells (Human fetal astrocytes [1]; 5.56 µM) [%] | loss of total cells (Human fetal astrocytes [1]; 11.11 µM) [%] | loss of total cells (Human fetal astrocytes [1]; 22.22 µM) [%] | synaptosome phagocytosis (Human fetal astrocytes [2]; 1.39 µM) [%] | synaptosome phagocytosis (Human fetal astrocytes [2]; 2.78 µM) [%] | synaptosome phagocytosis (Human fetal astrocytes [2]; 5.56 µM) [%] | synaptosome phagocytosis (Human fetal astrocytes [2]; 11.11 µM) [%] | synaptosome phagocytosis (Human fetal astrocytes [2]; 22.22 µM) [%] | loss of total cells (Human fetal astrocytes [3]; 1.39 µM) [%] | loss of total cells (Human fetal astrocytes [3]; 2.78 µM) [%] | loss of total cells (Human fetal astrocytes [3]; 5.56 µM) [%] | loss of total cells (Human fetal astrocytes [3]; 11.11 µM) [%] | loss of total cells (Human fetal astrocytes [3]; 22.22 µM) [%]
21 | Nc1ncnc2c1ncn2[C@@H]1O[C@H](COP(=O)(O)OP(=O)(O)OP(=O)(O)OP(=O)(O)OC[C@@H]2O[C@H](n3cnc4c(N)ncnc43)C(O)[C@@H]2O)[C@H](O)C1O (stereo partly drawn) [P1,P4-Di(adenosine-5')tetraphosphate triammonium] | – | – | – | – | 13.6 | – | – | – | – | 92.1 | – | – | – | – | –
22 | NC(CCCP(=O)(O)O)C(=O)O (racemic) [(±)-2-Amino-5-phosphonopentanoic acid] | -10.6 | -12.3 | -11.5 | -7.6 | 4.1 | 82 | 84 | 97 | 120 | 103 | – | – | – | – | –
23 | N=C(N)N1CCc2ccccc2C1 [Debrisoquin sulfate] | -6.3 | -8.5 | -3.3 | -1.3 | – | 102 | 108 | 69.1 | 104 | – | – | – | – | – | –
24 | Cc1cc(/C=C/c2ccc3cc(N(C)C)ccc3[n+]2C)c(C)n1-c1ccccc1 | – | – | – | – | – | – | – | – | – | – | 6.8 | 4.4 | 13.9 | 36 | 21.6
25 | CN1C2CCC1CC(OC(=O)C(O)c1ccccc1)C2 (stereo not drawn) | – | – | – | – | – | – | – | – | – | – | 7.4 | -19.3 | 0 | 0.9 | 19.8
26 | O=c1ccc2ccc(O)c(O)c2o1 [Daphnetin] | -0.4 | -5.1 | 6.6 | 15.7 | – | 91.8 | 90.1 | 112 | 95.4 | – | – | – | – | – | –
27 | CCNC(=O)[C@H]1O[C@@H](n2cnc3c(N)nc(NCCc4ccc(CCC(=O)O)cc4)nc32)[C@H](O)[C@@H]1O | 9.6 | 4.3 | 11.5 | -16.6 | – | 112 | 100 | 94.6 | 89.4 | – | – | – | – | – | –
28 | N[C@H](C(=O)O)c1cc(O)cc(O)c1 [(S)-3,5-Dihydroxyphenylglycine] | -7.1 | 3.4 | 7.4 | -9.4 | – | 88.3 | 95.9 | 89.6 | 107 | – | – | – | – | – | –
29 | CC(C)Cc1ccc([C@H](C)C(=O)O)cc1 [S(+)-Ibuprofen] | 10 | 14 | 31.5 | 4.8 | 20.6 | 118 | 75.9 | 82.5 | 96.7 | 120 | – | – | – | – | –
30 | CN(C)C(=O)N=NC(=O)N(C)C [N,N,N',N'-Tetramethylazodicarboxamide] | – | – | – | – | 17.6 | – | – | – | – | 90.4 | – | – | – | – | –
31 | COc1ccc2c(=O)c(CC(=O)O)coc2c1 | – | – | – | – | – | – | – | – | – | – | -7.6 | 8 | -13.7 | 9.7 | -3.3
32 | N[C@@H](Cc1c[nH]c2ccccc12)C(=O)O [L-Tryptophan] | -29.5 | -15.3 | 6.2 | -33.3 | -17.3 | 114 | 98.8 | 98.5 | 106 | 82.4 | – | – | – | – | –
33 | O=C1N=C(O)NC1(c1ccccc1)c1ccccc1 [Phenytoin sodium] | -1.3 | 0 | 1.6 | 1.3 | – | 116 | 108 | 104 | 110 | – | – | – | – | – | –
34 | Cn1cc(C(=O)OCC2CCN(CCNS(C)(=O)=O)CC2)c2ccccc21 | -8.1 | -22.3 | -6.9 | -16.6 | 9.4 | 117 | 124 | 90 | 90.9 | 112 | – | – | – | – | –
35 | O=C(O)[C@H]1C[C@H](C(=O)O)N1 (relative stereo) [trans-Azetidine-2,4-dicarboxylic acid] | -15 | -15.3 | -12.4 | -9.4 | -7.9 | 82 | 82.5 | 94.6 | 97.8 | 101 | – | – | – | – | –
36 | COC1=C(OC)C(=O)c2ccccc2C1=O [2,3-Dimethoxy-1,4-naphthoquinone] | – | – | – | – | -6.4 | – | – | – | – | 100 | – | – | – | – | –
37 | NCC(O)C1CCCCCCC1 (stereo not drawn) [2-Cyclooctyl-2-hydroxyethylamine hydrochloride] | 5.4 | -11.1 | -4.9 | -8.5 | 2.4 | 104 | 94.3 | 113 | 108 | 121 | – | – | – | – | –
38 | CN1[C@@H]2CC[C@H]1C[C@@H](OC(=O)C(O)c1ccccc1)C2 (mixture of isomers) [DL-Homatropine hydrobromide] | 7.1 | -35 | 8.2 | -9.4 | 11.2 | – | – | – | – | – | – | – | – | – | –
39 | CNc1ncnc2c1ncn2[C@@H]1O[C@H](CO)[C@@H](O)[C@H]1O [N6-Methyladenosine] | 14.7 | 4.1 | -19.2 | 16.2 | 29.9 | 121 | 119 | 109 | 137 | 112 | – | – | – | – | –
40 | COc1cc(-c2ccc(=O)[nH]n2)ccc1OC(F)F [Zardaverine] | -20.2 | -6.3 | -2.8 | -18.8 | -34.6 | 99 | 90.6 | 109 | 128 | 109 | – | – | – | – | –

Reference: the supplement of paper PMC10689618
